The test deals with T1, 3xFLAG-tagged C16orf72 (human) (UniProt Q14CZ0).
T1 sequence: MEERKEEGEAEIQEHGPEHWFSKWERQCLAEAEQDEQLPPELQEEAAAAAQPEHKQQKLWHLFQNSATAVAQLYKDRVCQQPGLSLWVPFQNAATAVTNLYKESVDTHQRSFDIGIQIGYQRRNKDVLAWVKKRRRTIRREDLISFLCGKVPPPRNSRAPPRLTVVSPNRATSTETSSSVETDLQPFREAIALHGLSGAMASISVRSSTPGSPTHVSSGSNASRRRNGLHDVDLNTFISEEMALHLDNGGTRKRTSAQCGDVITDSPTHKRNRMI
In words: affinity purification with mass spectrometry.

Protein sequences, listed by entry. Tags and fused reporters are not part of them.
UniProt Q7Z6Z7: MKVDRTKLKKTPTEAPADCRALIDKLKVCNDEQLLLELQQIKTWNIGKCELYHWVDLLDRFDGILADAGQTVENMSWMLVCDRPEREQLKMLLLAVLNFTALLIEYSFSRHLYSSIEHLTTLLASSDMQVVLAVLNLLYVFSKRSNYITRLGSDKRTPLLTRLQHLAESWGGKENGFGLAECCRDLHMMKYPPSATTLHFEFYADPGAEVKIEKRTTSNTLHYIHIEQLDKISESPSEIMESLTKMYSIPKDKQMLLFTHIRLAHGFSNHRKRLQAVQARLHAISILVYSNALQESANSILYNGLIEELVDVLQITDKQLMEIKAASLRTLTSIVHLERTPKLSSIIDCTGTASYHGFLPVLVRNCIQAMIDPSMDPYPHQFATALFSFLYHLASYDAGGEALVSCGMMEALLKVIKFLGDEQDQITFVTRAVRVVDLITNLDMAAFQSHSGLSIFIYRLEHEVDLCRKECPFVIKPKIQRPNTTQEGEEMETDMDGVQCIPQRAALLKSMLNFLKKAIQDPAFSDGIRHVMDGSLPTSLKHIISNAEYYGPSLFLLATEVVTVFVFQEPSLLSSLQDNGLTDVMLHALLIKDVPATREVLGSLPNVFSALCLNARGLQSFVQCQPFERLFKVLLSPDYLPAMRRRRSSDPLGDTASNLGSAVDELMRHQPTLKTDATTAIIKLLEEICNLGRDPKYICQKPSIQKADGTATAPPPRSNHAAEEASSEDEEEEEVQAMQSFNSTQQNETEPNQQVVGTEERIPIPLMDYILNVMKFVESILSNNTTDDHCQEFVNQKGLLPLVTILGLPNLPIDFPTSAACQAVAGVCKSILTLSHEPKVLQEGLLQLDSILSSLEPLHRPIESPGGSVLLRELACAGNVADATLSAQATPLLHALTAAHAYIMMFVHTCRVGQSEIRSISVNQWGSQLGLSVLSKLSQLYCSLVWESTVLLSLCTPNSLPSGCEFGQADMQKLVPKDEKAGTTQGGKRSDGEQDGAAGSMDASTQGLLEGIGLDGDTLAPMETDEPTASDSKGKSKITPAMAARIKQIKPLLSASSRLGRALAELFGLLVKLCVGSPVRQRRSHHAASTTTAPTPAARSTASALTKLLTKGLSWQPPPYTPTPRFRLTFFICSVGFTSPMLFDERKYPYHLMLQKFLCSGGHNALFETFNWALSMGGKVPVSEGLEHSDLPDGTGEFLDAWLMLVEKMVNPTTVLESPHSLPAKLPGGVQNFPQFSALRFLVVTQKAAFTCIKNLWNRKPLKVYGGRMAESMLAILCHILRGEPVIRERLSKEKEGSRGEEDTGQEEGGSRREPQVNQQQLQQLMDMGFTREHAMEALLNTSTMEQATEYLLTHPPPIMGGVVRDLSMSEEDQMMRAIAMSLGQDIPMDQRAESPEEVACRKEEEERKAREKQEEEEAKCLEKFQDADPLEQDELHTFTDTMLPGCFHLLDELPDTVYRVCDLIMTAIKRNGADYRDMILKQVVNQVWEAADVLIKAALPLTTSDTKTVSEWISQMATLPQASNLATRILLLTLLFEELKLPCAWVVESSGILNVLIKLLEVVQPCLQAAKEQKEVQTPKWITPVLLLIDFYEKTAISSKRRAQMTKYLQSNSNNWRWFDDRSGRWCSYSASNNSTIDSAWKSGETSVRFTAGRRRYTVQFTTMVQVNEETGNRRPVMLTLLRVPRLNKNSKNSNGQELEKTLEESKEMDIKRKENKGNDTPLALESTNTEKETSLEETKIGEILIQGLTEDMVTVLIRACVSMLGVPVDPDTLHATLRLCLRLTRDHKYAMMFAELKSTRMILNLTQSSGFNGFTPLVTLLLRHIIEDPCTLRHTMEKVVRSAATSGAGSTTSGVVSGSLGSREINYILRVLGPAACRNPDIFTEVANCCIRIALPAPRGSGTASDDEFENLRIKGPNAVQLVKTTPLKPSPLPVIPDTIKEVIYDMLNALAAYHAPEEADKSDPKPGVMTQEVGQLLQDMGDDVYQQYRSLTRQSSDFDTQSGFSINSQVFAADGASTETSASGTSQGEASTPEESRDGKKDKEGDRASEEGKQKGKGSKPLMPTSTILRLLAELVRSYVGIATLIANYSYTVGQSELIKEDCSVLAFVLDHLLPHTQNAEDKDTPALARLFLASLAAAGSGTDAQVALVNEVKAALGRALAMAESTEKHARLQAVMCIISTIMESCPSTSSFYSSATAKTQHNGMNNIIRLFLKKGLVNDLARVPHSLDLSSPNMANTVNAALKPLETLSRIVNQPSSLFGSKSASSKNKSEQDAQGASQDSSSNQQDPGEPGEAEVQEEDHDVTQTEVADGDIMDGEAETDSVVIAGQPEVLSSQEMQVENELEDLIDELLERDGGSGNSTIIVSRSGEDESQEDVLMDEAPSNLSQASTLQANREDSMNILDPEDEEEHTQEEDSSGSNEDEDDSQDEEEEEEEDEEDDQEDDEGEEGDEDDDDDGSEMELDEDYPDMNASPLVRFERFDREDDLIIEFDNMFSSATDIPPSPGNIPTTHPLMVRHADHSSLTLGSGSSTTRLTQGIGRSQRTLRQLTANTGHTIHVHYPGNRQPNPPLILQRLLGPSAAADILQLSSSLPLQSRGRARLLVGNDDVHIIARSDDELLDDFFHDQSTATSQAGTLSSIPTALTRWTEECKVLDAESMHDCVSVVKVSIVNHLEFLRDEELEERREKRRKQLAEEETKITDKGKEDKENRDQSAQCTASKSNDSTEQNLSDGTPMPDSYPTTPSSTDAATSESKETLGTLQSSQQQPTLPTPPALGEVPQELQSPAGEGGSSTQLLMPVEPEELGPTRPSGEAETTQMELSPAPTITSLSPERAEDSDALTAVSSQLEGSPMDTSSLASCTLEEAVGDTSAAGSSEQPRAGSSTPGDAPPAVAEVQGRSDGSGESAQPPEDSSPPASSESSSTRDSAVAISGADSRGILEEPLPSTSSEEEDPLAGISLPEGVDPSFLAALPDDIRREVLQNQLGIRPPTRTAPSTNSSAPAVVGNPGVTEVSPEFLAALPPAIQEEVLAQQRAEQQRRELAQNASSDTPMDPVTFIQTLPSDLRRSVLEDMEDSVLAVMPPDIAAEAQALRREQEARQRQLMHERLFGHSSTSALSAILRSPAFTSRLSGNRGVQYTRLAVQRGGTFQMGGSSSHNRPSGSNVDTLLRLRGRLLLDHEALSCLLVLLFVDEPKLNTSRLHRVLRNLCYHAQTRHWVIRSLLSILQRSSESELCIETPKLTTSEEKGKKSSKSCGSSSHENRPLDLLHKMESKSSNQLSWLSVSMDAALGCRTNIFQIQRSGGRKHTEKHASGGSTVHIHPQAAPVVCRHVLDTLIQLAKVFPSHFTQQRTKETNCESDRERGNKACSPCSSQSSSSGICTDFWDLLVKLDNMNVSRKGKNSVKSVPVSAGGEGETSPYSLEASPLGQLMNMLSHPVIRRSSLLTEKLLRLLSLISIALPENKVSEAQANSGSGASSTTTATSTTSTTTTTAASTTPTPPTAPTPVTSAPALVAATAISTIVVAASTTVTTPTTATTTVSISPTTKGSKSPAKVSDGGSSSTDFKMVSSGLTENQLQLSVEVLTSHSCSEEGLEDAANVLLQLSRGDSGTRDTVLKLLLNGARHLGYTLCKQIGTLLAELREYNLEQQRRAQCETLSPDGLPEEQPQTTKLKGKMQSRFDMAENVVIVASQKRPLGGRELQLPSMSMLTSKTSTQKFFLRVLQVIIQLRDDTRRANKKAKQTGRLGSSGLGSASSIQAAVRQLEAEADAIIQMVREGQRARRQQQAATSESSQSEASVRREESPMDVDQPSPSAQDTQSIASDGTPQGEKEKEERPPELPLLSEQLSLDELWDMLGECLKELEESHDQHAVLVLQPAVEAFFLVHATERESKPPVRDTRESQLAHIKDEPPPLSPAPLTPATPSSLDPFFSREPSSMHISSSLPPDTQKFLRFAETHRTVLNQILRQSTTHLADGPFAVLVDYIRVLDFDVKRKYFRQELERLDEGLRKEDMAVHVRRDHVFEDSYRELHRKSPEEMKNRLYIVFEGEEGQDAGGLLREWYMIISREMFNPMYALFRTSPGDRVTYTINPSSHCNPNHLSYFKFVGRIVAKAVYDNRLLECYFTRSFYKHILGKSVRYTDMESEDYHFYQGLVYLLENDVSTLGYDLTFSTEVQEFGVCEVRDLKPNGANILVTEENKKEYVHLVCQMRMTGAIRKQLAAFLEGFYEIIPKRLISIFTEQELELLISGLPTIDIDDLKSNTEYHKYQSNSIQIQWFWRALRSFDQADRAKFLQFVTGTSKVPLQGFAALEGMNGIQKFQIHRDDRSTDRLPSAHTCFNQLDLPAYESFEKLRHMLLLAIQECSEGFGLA

Experimental findings from article doi:10.1101/847996 are described below.

These are yes or no findings as the source states them, for the method shown. In cells and extracts the contact can be indirect. A yes stands for co-enrichment or nearness to the bait. Other partners may have been found. Tags and fused reporters may be left off the sequences shown.

Turning to “Hect ubiquitin E3 ligase HUWE1 (from UniProt Q7Z6Z7 1-4374) (enzyme)”, the binding result was “binds”.
